Among all 220,000 compounds or so, about 2,400 (1.1%) were called active. The shares of active, inactive and inconclusive entries below differ from those in the screen. The call rests on the fitted dose curve; in most records, active means well fitted inhibition curve with a large enough effect; inconclusive means small, poorly fitted or top-dose-only effect, or effect the other way; inactive means no such curve, though single readings can be large or run the other way. A potency beside an inconclusive call is a rough fit, not a confirmed value.
Test: qHTS Multiplex Assay to Identify Dual Action Probes in a Cell Model of Huntington: Aggregate Formation (GFP); further: nearly all actives have a fitted effect of over 60% in size
Conditions: PC12 HttQ103-GFP aggregates, Acumen cytometry, 40 h; activity change, negative = inhibition: at 46.1 µM (top of the series) unless noted
Outline: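 PC12/HTTQ103-GFP, ecdysone-inducible; teb 100 nM; cpd qHTS titration; GFP aggregates read on laser cytometer, Ex 488/Em 500-530 nm.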
On the % scale 0 is the no-effect control and ±100 the full control effect; potency means the concentration at half of the fitted maximal effect.

SMILES | activity change, negative = inhibition | Potency
COC(=O)c1ccc(Cn2nc(C)c(Cl)c2C)o1 | inactive: -30.2% | 
COc1ccc2c(c1)CC/C(=C\c1ccc(OC)c(Cn3nc(C)cc3C)c1)C2=O |  | inconclusive: 35.5 µM [inhibitor, single point]
CCN(CC)c1ccc(/C=N/NC(=O)c2ccco2)c(O)c1 |  | inconclusive: 1.12 µM [inhibitor, single point]
COc1ccc(Nc2nc(N)nc(CSC(=S)N3CCN(c4ccccc4)CC3)n2)cc1 |  | inconclusive: 5.01 µM [activator, full curve]
Cc1ccc(CNC(=O)COc2ccc(C(=O)c3ccc(F)cc3)cc2)cc1 |  | inconclusive: 11.2 µM [inhibitor, single point]
O=C(COc1ccc(S(=O)(=O)NCCc2ccccc2)cc1)N1CCCC1 |  | inconclusive: 6.31 µM [inhibitor, single point]
COc1ccc2cc3c(N)nn(C(=O)c4ccccc4[N+](=O)[O-])c3nc2c1 |  | inconclusive: 0.562 µM [inhibitor, full curve, poor fit]
Cc1nnc(SCCN2CCOCC2)n1-c1cccc(Cl)c1 |  | inconclusive: 1.26 µM [activator, partial curve]
Brc1ccc2ncnc(NCc3ccccc3)c2c1 |  | active: 2.24 µM
COCc1cc(N2CCOCC2)nc(SCc2ccc(Cl)cc2)n1 |  | inconclusive: 15.8 µM [inhibitor, single point]
Cc1ccc(NC(=S)N(Cc2cccs2)Cc2cc3cccc(C)c3[nH]c2=O)cc1 | inactive: 12.9% | 
O=C(COC(=O)c1cc(S(=O)(=O)N2CCCCC2)ccc1N1CCOCC1)NC1CCS(=O)(=O)C1 (configuration not stated) | inactive: -2.35% | 
C/C(N)=C(/C#N)C(=O)CSc1nc2scc(-c3ccccc3)c2c(=O)n1C |  | inconclusive: 25.1 µM [inhibitor, single point]
CCOc1ccc2[nH]cc(S(=O)(=O)c3ccc(F)cc3)c(=O)c2c1 |  | inconclusive: 31.6 µM [inhibitor, partial curve]
CCn1c(CNC(=O)Cc2ccc(OC)cc2)nnc1SCC(=O)c1ccccc1 |  | inconclusive: 17.8 µM [activator, partial curve]
CCCCN(c1ccccc1)c1ncnc2nc[nH]c12 |  | inconclusive: 0.562 µM [activator, partial curve, poor fit]
COc1ccc(C2/C=C\CN(S(=O)(=O)c3cccs3)CC(=O)N2Cc2ccc(F)cc2)cc1 (configuration not stated) |  | inconclusive: 0.891 µM [activator, full curve]
Cc1ccc2[nH]c(=O)c(CN(Cc3ccccc3)Cc3nnnn3C3CCCC3)cc2c1 |  | inconclusive: 35.5 µM [inhibitor, single point]
CCC(C)NS(=O)(=O)c1ccc(NC(=O)C(Sc2ccccc2)c2ccccc2)cc1 (configuration not stated) |  | inconclusive: 35.5 µM [inhibitor, single point]
CC(C)(C)NC[C@H](O)COc1cccc2c1CCC(=O)N2 | inactive: -0.804% [at 20.6 µM] | 
CCOc1cc(Br)ccc1S(=O)(=O)N1CC(C)OC(C)C1 (configuration not stated) |  | inconclusive: 22.4 µM [inhibitor, single point]
C=CCN(C(=O)CSc1nc2c(sc3ccccc32)c(=O)n1CCN(CC)CC)c1ccccc1 |  | inconclusive: 20 µM [inhibitor, single point]
CC1=C(C(=O)Nc2ccc(C)cc2C)C(c2cccs2)NC(=S)N1 (configuration not stated) |  | inconclusive: 1.26 µM [inhibitor, single point]

SMILES | activity change, negative = inhibition | Potency
COc1ccccc1Nc1nc(N)nc(CSC(=S)N2CCCCC2C)n1 (configuration not stated) |  | inconclusive: 0.891 µM [inhibitor, single point]
CCCn1c(O)c(N=Nc2ccc3ccccc3n2)c2ccccc21 |  | inconclusive: 35.5 µM [inhibitor, single point]
[O-]/C(=C(\C(=S)Nc1cccc2ccccc12)[n+]1cccc(CO)c1)c1ccc(Cl)s1 |  | inconclusive: 25.1 µM [inhibitor, partial curve]
COc1cccc(CN2CCN(c3cccc(C(F)(F)F)c3)CC2)c1OC | inactive: 5.92% | 
C=CCn1c(=S)[nH]c2scc(-c3cccs3)c2c1=O |  | inconclusive: 35.5 µM [inhibitor, single point]
Oc1cccc(-c2nc3c4c(ncn3n2)-c2ccccc2CC42CCCC2)c1 |  | inconclusive: 22.4 µM [inhibitor, single point]
O=C(NCCN1CCOCC1)c1cc(-c2ccc(Cl)cc2)on1 | inactive: -1.74% | 
COc1ccc(NC(=O)c2cc3c(s2)CCC(C)C3)cc1S(=O)(=O)N1CCOCC1 (configuration not stated) |  | inconclusive: 10 µM [inhibitor, partial curve]
O=C(CCC1COc2ccccc2O1)Nc1ncccc1O (configuration not stated) |  | inconclusive: 35.5 µM [activator, single point]
COC(=O)CSC1=NS(=O)(=O)c2ccccc21 | inactive: 12% | 
O=c1c(Cc2ccccc2)c(O)ccn1CCc1cnc[nH]1 | inactive: -2.2% | 
O=C(O)c1ccc(NS(=O)(=O)c2cc(C(=O)O)ccc2Br)cc1 |  | inconclusive: 1 µM [activator, single point]
COc1ccc(CCNC(=S)N2CCC(C(=O)c3ccc(F)cc3)CC2)cc1OC |  | inconclusive: 35.5 µM [inhibitor, single point]
Cc1ccc(S(=O)(=O)/N=C(\Nc2cc(C)on2)c2ccc(Cl)cc2)cc1 | inactive: -2.61% | 
CCSc1nnc(NC(=O)C(NC(=O)c2ccc(Cl)cc2)C(C)C)s1 (configuration not stated) |  | active: 31.6 µM
COc1ccc(C(CCNCc2ccccc2F)c2ccc(F)cc2)cc1 (configuration not stated) |  | inconclusive: 35.5 µM [inhibitor, single point]
O=C(c1ccccc1)[C@H]1[C@H](c2ccccc2)[C@@]2(N=C(c3ccccc3)OC2=O)C2c3ccccc3C=NN21 (some centres not stated) |  | inconclusive: 5.62 µM [inhibitor, single point]
N=c1c2c(-c3ccccc3)c(-c3ccccc3)n(Cc3ccccc3)c2ncn1CCCO |  | inconclusive: 31.6 µM [inhibitor, single point]
Cc1ccccc1C(=O)N1CCN(c2ccccn2)CC1 | inactive: -1.9% | 
COC(=O)[C@@H]1C[C@@]2(O)[C@H](O)[C@H](O)[C@H](O)C[C@H]2N1Cc1cc(F)ccc1F |  | inconclusive: 3.16 µM [inhibitor, partial curve]
CCC(C(=O)NC1CCCC1)N(Cc1ccco1)C(=O)Cn1nnc(-c2ccc(C)cc2)n1 (configuration not stated) |  | inconclusive: 15.8 µM [inhibitor, single point]
COc1cccc(CNCc2cccnc2)c1OCc1ccccc1 | inactive: -14.4% [at 9.22 µM] | 
Cc1c(C#N)c2ncnc(-c3ccccc3)c2n1-c1ccccc1 |  | inconclusive: 0.316 µM [inhibitor, partial curve, poor fit]

Filtered by structure, those above with a cyano group.
SMILES | activity change, negative = inhibition | Potency
C/C(N)=C(/C#N)C(=O)CSc1nc2scc(-c3ccccc3)c2c(=O)n1C |  | inconclusive: 25.1 µM [inhibitor, single point]
Cc1c(C#N)c2ncnc(-c3ccccc3)c2n1-c1ccccc1 |  | inconclusive: 0.316 µM [inhibitor, partial curve, poor fit]

(further entries)

SMILES | activity change, negative = inhibition | Potency
Cc1cccc(/C=N/n2c(-c3ccccn3)n[nH]c2=S)c1 |  | inconclusive: 5.62 µM [inhibitor, single point]
Cc1cccc(NC(=O)c2ccc(S(=O)(=O)C(F)F)cc2)c1C |  | inconclusive: 35.5 µM [inhibitor, single point]
CCn1c(/C=C/Nc2ccccc2)[n+](CC)c2cc(Cl)c(Cl)cc21 |  | inconclusive: 5.62 µM [inhibitor, single point]
Nc1nc(F)cc(N2CCCCCC2)n1 | inactive: -16% | 
O=C(c1ccccc1NS(=O)(=O)c1cccc2cccnc12)N1CCOCC1 | inactive: -26.4% | 
CCNC(=S)NNC(=O)c1ccc(OC)cc1 | inactive: -4.78% [at 9.22 µM] | 
OC(CNCC(c1ccc(Cl)cc1Cl)c1c[nH]c2ccccc12)c1ccccc1 (configuration not stated) |  | inconclusive: 35.5 µM [inhibitor, single point]
Cc1cccc2c(C(=O)N3CCN(C(=O)c4ccco4)CC3)cc(-c3cccc(Br)c3)nc12 |  | active: 8.91 µM
O=C(CC1(O)C(=O)N(C/C=C/c2ccccc2)c2ccccc21)c1ccccn1 (configuration not stated) | inactive: 8.55% | 
COc1ccc(OCC(=O)NNc2c3ccccc3nc3ccccc23)cc1 |  | active: 11.2 µM
Cc1cccc(NS(=O)(=O)c2ccc(C3CCCCC3)cc2)c1 |  | active: 11.2 µM
CCC1=NN(C(=O)C(=O)Nc2ccc(Br)cc2)C(O)(C(F)(F)F)C1 (configuration not stated) |  | inconclusive: 35.5 µM [inhibitor, single point]
O=C(CN(c1cccc(C(F)(F)F)c1)S(=O)(=O)c1ccc(Cl)c([N+](=O)[O-])c1)NCc1ccccc1Cl |  | inconclusive: 17.8 µM [activator, partial curve, poor fit]
CC[C@@H]1CC=C[C@H]2[C@H]1C(=O)N(Cc1ccccc1)[C@H]2c1cc(C)ccc1F |  | inconclusive: 5.62 µM [inhibitor, single point]
CCCCCc1nc2sc3c(c2c(=O)n1NC(=O)c1ccc([N+](=O)[O-])cc1)CC(C)(C)OC3 |  | inconclusive: 35.5 µM [inhibitor, single point]
C=C(C)Cn1c(SCC(=O)N/N=C/c2c(O)ccc3ccccc23)nc2ccccc2c1=O |  | inconclusive: 35.5 µM [activator, single point]
COc1cc2c(cc1OC)C(c1ccc(-c3ccc(Cl)cc3Cl)o1)=NCC2 |  | active: 14.1 µM
O=C(N/N=C/c1cccc(OCC(=O)N2CCCC2)c1)C(=O)Nc1ccccc1F |  | inconclusive: 5.62 µM [activator, single point]
CN=C(Nc1ccccc1)SC1CC(=O)N(c2cccc(OC)c2)C1=O (configuration not stated) |  | inconclusive: 35.5 µM [activator, partial curve, poor fit]
Cc1cccc(NC(=S)NCCC(c2ccccc2)c2ccccc2)c1 |  | inconclusive: 15.8 µM [inhibitor, single point]
Cc1ccc(N=Cc2c(O)ccc3ccccc23)cc1F |  | inconclusive: 15.8 µM [inhibitor, single point]

Source: PubChem BioAssay AID1688 (National Center for Advancing Translational Sciences (NCATS), 2009)
